Source: article PMC6928761, “Trypanocidal Mechanism of Action and in silico Studies of p-Coumaric Acid Derivatives” (International Journal of Molecular Sciences, 2019)

Assays:
[1] = tested on: T. cruzi (strain Y) trypomastigotes; experiment: Effect on T. cruzi trypomastigote forms (24 h); assay type: cell-based, Trypanosoma cruzi; conditions: selectivity index vs LLC-MK2
Description: (§1) The trypanocidal activity of the p-coumaric derivatives (1–12) were evaluated against epimastigotes and trypomastigote forms of T. cruzi (strain Y) at 24 h of incubation and in host LLC-MK2 cells at 24 h of exposure to different concentrations: 100; 50; 25; 12.5; 6.25; 3.12; and 1.56 μg/mL. In the MTT assay it was possible to calculate the IC50 of the tested substances through cell viability, which was calculated in relation to the negative control, whose absorbance was considered 100%.
Acquisition of T. cruzi trypomastigotes was by infection of LLCMK2 cells using trypomastigotes in T-25/75cm^2 containers at 37 °C with 5% CO2 atmosphere in DMEM (Vitrocell, São Paulo, Brazil) and supplementation of 1% antibiotics and 2% SFB for 24 h. Then the trypomastigotes were plated and treated with p-coumaric acid derivatives. Cell viability was counted after 24 h of incubation at 37 °C. LC50 was obtained. While relative cell viability was calculated using sterile PBS-treated cells for both negative controls and experiments, all in triplicate.

[2] = tested on: T. cruzi (strain Y) epimastigotes; experiment: Effect on T. cruzi epimastigote forms (24 h, Neubauer chamber count); assay type: cell-based, Trypanosoma cruzi; conditions: selectivity index vs LLC-MK2
Description: as §1
Preparation of T. cruzi epimastigote was performed by cultivation in 96-well Y-staining plates at a density of 10^6 cells/mL, and using liver tryptose infusion with 10% fetal bovine serum (SFB) supplementation, and 1% antibiotic. They were then treated with p-coumaric derivatives. The grown parasites presenting inhibition were collected and quantified in a Neubauer chamber after incubation at 28 °C for 24 h. To determine relative viability, parasites treated only with sterile PBS medium were used as negative controls (viability of 100%), and experiments were performed in triplicate.

CCCOC(=O)/C=C/c1ccc(O)cc1 [compound 3, Propyl p-coumarate]
Y strain (Tripomastigotes) SI [1]: 3.8 | Y strain (Epimastigotes) SI [2]: 26.55

CCCCCOC(=O)/C=C/c1ccc(O)cc1 [compound 7, pentyl p-coumarate]
Y strain (Tripomastigotes) SI [1]: 2 | Y strain (Epimastigotes) SI [2]: 23.86

CC(C)CCOC(=O)/C=C/c1ccc(O)cc1 [compound 8, isopentyl p-coumarate]
Y strain (Tripomastigotes) SI [1]: 1.08 | Y strain (Epimastigotes) SI [2]: 9.1
